These are yes or no findings as the source states them, for the method shown. Binding seen in cells or lysates may run through a third protein. Binding can be weak; no strength is given.

Chains of the proteins cited; added tags and fusions are not shown. Lines headed by an entry give the natural chain unless they say otherwise; changes in a name come on top.
UniProt P18206: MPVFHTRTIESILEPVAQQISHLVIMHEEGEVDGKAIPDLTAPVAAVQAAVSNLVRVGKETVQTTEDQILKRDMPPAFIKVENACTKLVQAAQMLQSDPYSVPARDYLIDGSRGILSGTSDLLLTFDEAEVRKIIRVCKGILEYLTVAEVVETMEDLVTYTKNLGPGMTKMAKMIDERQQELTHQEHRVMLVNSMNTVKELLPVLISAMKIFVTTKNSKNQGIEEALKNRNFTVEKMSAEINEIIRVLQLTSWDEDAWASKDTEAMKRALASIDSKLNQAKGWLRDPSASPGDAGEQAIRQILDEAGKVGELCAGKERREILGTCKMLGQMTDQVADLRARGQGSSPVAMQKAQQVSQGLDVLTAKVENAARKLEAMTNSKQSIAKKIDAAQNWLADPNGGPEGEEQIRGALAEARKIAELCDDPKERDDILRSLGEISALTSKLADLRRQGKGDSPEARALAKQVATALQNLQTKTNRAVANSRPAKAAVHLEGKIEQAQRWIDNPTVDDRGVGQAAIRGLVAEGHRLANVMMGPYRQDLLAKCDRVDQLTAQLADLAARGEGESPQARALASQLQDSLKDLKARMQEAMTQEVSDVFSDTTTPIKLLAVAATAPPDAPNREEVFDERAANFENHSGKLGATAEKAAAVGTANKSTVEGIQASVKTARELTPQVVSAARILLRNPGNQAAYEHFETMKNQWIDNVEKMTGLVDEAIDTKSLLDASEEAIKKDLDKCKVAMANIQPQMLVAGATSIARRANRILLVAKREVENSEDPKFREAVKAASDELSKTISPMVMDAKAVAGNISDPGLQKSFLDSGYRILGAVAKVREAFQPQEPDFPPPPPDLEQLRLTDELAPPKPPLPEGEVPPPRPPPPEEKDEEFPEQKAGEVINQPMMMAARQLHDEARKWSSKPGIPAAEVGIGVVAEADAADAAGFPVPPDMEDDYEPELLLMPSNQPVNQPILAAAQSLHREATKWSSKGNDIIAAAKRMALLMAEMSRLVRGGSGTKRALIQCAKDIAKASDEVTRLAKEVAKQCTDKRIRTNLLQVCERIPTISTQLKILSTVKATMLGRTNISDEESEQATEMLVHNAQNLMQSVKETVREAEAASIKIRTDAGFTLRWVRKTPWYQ

Assay [1] addresses T1, Glypican-6 (GPC6) (human (endogenous in MDA-MB-231)) (UniProt Q9Y625).
T1 sequence: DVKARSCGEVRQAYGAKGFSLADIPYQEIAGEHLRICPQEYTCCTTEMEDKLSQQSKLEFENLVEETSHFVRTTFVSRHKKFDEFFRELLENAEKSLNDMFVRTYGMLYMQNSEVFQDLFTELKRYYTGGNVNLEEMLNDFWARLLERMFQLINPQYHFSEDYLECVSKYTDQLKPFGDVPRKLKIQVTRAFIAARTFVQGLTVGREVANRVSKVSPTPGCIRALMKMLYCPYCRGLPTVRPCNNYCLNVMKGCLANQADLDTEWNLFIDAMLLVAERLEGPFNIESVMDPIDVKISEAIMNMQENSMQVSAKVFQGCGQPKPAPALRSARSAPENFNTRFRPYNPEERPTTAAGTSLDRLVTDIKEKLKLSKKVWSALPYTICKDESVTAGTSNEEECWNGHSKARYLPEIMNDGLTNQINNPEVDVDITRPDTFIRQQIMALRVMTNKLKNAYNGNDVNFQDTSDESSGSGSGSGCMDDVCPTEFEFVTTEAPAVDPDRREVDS
As to the kind of experiment: co-IP; MDA-MB-231 cell lysate (20 mM Tris pH 7.4, 150 mM NaCl, 5 mM MgCl2, 0.5% NP-40, protease inhibitors); IP with mouse anti-GPC6, mouse anti-vinculin or control mouse IgG at 4 °C, Protein A/G agarose beads overnight; Western blot with anti-vinculin and anti-GPC6; endogenous proteins. In general terms: In western blotting, separated proteins are transferred to a membrane and probed.

For assay [2], the target named is Vinculin (human (endogenous in MDA-MB-231)) (UniProt P18206). The assay is described as above.

On to Vinculin (from UniProt P18206-2), for which the binding entry in assay [1] is “binds”.

B1: Glypican-6 (GPC6) (protein, UniProt Q9Y625 24-529)
chain: DVKARSCGEVRQAYGAKGFSLADIPYQEIAGEHLRICPQEYTCCTTEMEDKLSQQSKLEFENLVEETSHFVRTTFVSRHKKFDEFFRELLENAEKSLNDMFVRTYGMLYMQNSEVFQDLFTELKRYYTGGNVNLEEMLNDFWARLLERMFQLINPQYHFSEDYLECVSKYTDQLKPFGDVPRKLKIQVTRAFIAARTFVQGLTVGREVANRVSKVSPTPGCIRALMKMLYCPYCRGLPTVRPCNNYCLNVMKGCLANQADLDTEWNLFIDAMLLVAERLEGPFNIESVMDPIDVKISEAIMNMQENSMQVSAKVFQGCGQPKPAPALRSARSAPENFNTRFRPYNPEERPTTAAGTSLDRLVTDIKEKLKLSKKVWSALPYTICKDESVTAGTSNEEECWNGHSKARYLPEIMNDGLTNQINNPEVDVDITRPDTFIRQQIMALRVMTNKLKNAYNGNDVNFQDTSDESSGSGSGSGCMDDVCPTEFEFVTTEAPAVDPDRREVDS
With B1, the binding entry in assay [2] is given as “binds weakly”.

These data come from paper PMC11762004.
